The supplement of paper PMC3334620
In all, about 33,000 sequences were measured (“E-score (-0.5 to 0.5)”: median about -8e-05, highest 2% from about 0.23 on). Some of the results follow.

target: T1, Nrg2 (UniProt P38082); assay: PBM E-score (8-mer binding enrichment) (E-score (-0.5 to 0.5)); higher = stronger / more preferred TF binding; details: protein concentration: 100 nM; construct: GST-full length
T1 sequence: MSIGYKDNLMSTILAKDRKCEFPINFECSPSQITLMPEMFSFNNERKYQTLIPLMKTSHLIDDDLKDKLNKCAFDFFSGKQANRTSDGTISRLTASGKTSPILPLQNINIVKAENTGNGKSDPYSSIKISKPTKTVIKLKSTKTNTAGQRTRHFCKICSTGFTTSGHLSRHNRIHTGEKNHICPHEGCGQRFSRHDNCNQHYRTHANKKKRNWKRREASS
Method in brief: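 The E-score, a modified Wilcoxon-Mann-Whitney statistic, was computed by the Universal PBM Analysis Suite for every ungapped eight-base word pooled with its reverse complement. Scans behind it were normalised with masliner after bound GST-tagged yeast transcription factors were detected with fluorescent anti-GST. The proteins, at about 100-200 nM, had been applied to universal all-10-mer Agilent arrays made double-stranded by primer extension.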

Sequence | PBM E-score
GGGAGTGA | -0.0907
CTAACCAA | 0.134
TACGGTAA | 0.0477
CAGCGCTA | 0.00256
CCTGACCC | 0.0998
CCTCGAAG | 0.0341
AGGTTATA | -0.0834
ATAAAGTC | -0.0479
GGCTTCAA | -0.0397
CCGTAGTA | -0.0387
GCTGAACA | 0.00722
ATACTGAT | 0.225
ACAAAATA | 0.112
CCGAACAG | -0.0173
CGTGTAGC | -0.12
GATGAATC | 0.171
ACTCTAAC | 0.0412
CTATACTC | 0.0213
AGCCGCCC | -0.0653
CTCGCGGC | -0.112
AGTCGCAC | -0.16
AATTCTTG | 0.0958
CGATTCCC | 0.18
AGTGAGTG | -0.0728
ACTCTCCA | -0.0535

Sequence | PBM E-score
ATCCCTTC | -0.0663
AACGACGC | -0.17
CAACCCGC | 0.0597
CGCCCAAA | 0.0998
CGCTGAAC | -0.111
GCCAGTGA | -0.183
ACATCACC | -0.072
CCATAAAA | 0.0824
ACAATATG | 0.135
CACTTACG | -0.0647
AACGCCTG | -0.0585
AATATATT | 0.341
CTTGAACC | 0.0101
GACAGCCA | 0.0612
TCACAGAA | -0.0475
AATTTGGG | 0.0597
ACTGCGAG | -0.0584
AGTGCCTA | -0.234
AACTCGAC | 0.138
AGAGCGCA | -0.094
ATCCCAAT | 0.00302
AGTCAATC | 0.118
AAGAGGGT | -0.236
ACAACTGT | 0.00453
CTAGCATC | 0.0495

Sequence | PBM E-score
AAGAGCTC | -0.0862
CGGGACGC | -0.246
ACCCGATC | -0.0721
CACCTAGG | -0.082
AAGTGCAG | -0.246
CTGAGCCC | 0.0871
ATCTCCTA | -0.0802
CTCTCTAA | -0.177
CAATAGAA | -0.0608
AGGTCTCC | -0.238
ACTACACC | -0.0114
ACTACGGG | 0.00019
GCCTGAGC | -0.213
ACGTGCAC | 0.0339
ATGGGGGG | -0.357
GTGGCAAA | -0.0403
GAGCATTA | -0.0114
AGGAACGC | 0.0175
CTTTCGGA | -0.0315
AACTTTAG | -0.011
CGACATGC | 0.0795
AGTTACGA | 0.143
AGGCGGAC | -0.108
AGCCCTCC | -0.175
CGAGGCGA | 0.164

Sequence | PBM E-score
AATACACG | -0.0346
GCTGAAGC | -0.0603
AAGCTCAA | -0.093
CTCTCTTC | -0.132
GATCTTAC | -0.0314
AGCGAGCG | 0.103
GATATTAA | 0.147
GACACGTC | -0.16
CTTCAAGA | -0.113
AGGCTTCG | -0.19
GATCTTAA | -0.0628
ACGCTCCG | -0.12
ACGAGATC | -0.0548
GCACGCGC | 0.0126
GTTAAGGA | -0.0446
AGTAATTG | 0.052
ACTGGGCT | -0.238
AGACTGAC | -0.1
CTTGCCTA | -0.135
ATGTATAG | 0.0189
CGCGTCCC | 0.0884
ATTGCCTA | -0.106
AGTTCGTC | 0.1
CTGCGTCA | -0.0532
CACCGGCA | -0.0523

Sequence | PBM E-score
GGCCAAAA | 0.128
AGATGCGG | 0.0447
CCAACCTA | -0.118
CACCATAG | -0.184
CATAACAC | -0.0348
ACGACACC | 0.101
CATCTCAG | 0.23
CATGCAAA | 0.246
CAGCTGCG | -0.0101
GTACTTCA | 0.226
CTATCGAA | 0.0945
AACCACCG | -0.0351
ACGCGGAA | -0.0174
ACCGTAGA | -0.0561
CGTACACG | 0.00349
AAGGGCGG | 0.0821
GACATTTA | -0.114
CATCATCA | -0.0392
AGCACTCA | -0.0775
ACGGTGGC | -0.0523
AAAGAAGA | -0.0242
CGTTGGAC | -0.192
AACGCAGG | 0.0653
CCGGTATC | -0.227
ACCCGGTG | -0.0744

Sequence | PBM E-score
CAAATGGC | -0.122
ACGATGAA | 0.0792
AATTCCAT | 0.0917
CGGTCTGC | -0.0735
CGACGAAA | 0.0993
GATAACCC | -0.0928
ATTGTCCC | 0.0633
GACTTGGA | -0.141
AGGGTTAA | 0.00717
CTGCTATC | 0.158
GGTCTTGA | -0.0327
CTGAGGAA | 0.0159
AATTCGGG | 0.105
AAAGCCAG | -0.0713
ACATTTGC | 0.144
ACAGAATG | 0.0254
AAAACGCA | -0.0152
GGCCGCTA | -0.267
ACAACCCG | -0.109
AATGGACC | 0.146
ATAGTATC | 0.183
ACCTGATG | -0.115
AGCAAGTA | 0.0271
GAGAATAC | 0.101
CATGACAA | 0.184

Six entries from above, in markdown.

| Sequence | PBM E-score |
| --- | --- |
| AATTCCAT | 0.0917 |
| CGACGAAA | 0.0993 |
| ACATTTGC | 0.144 |
| GGCCGCTA | -0.267 |
| AATGGACC | 0.146 |
| CATGACAA | 0.184 |

More entries.

Sequence | PBM E-score
CCTCTAGC | -0.0815
ACGCCATA | -0.00018
CAGCCAGG | 0.0441
AAGCCGCG | -0.025
CCCCGTCC | -0.35
CCGCATGA | -0.0399
ACTGCCAG | 0.0319
GGTCTTAA | -0.301
AACACGTG | 0.184
CTTTGTAC | -0.0291
ATACCCAT | 0.0374
TCTTGAAA | 0.0357
CTAGGCCA | -0.0164
ACACAAGC | 0.0524
TGACTTAA | 0.0721
AAATTCAA | 0.127
ACACTACT | 0.0376
CGAATCCC | 0.178
CATCCTAA | -0.0697
CTCGGTGC | 0.0137
GAAAAACC | -0.023
AAATTTAC | 0.102

Quoted at random: 2 records from the list.
Sequence | PBM E-score
ACACTACT | 0.0376
TGACTTAA | 0.0721
